# In publication PMC2935386:
# For some assays here: Negatives hold for the conditions tested. For some assays here: Construct, isoform or probe ends are uncertain for at least one entry. For some assays here: Tags and fusion partners may be left off the protein sequences shown.
# Tests used:
# [1] = test system: TRβ1 DBD (TRβ1ΔAB/EF) + GATA2-Zf; experiment: gel filtration + agarose EMSA; settings: 100 uM each, no heterodimer on DNA, although each protein binds; recombinant protein; protein details: His (pET28a),His, thrombin treated; label: 5' fluorescein (FITC) on forward strand
# [2] = target: T1, TRβ1 DBD-LBD (TR DL, TRβ1ΔAB) (human) (UniProt P10828); experiment: fluorescence anisotropy; settings: T3, Hill n 1.7±0.4; Fluorescence anisotropy: 10 nM DNA, 20 mM Hepes pH 8.0, 50 mM NaCl, 1 mM MgCl2, 3 mM DTT, 5% glycerol, 10°C; agarose gel 1.3% in 0.5x TBE; recombinant protein; residues 102-461; protein details: His (pET28a); label: 5' fluorescein (FITC) on forward strand
# T1 sequence (looked up): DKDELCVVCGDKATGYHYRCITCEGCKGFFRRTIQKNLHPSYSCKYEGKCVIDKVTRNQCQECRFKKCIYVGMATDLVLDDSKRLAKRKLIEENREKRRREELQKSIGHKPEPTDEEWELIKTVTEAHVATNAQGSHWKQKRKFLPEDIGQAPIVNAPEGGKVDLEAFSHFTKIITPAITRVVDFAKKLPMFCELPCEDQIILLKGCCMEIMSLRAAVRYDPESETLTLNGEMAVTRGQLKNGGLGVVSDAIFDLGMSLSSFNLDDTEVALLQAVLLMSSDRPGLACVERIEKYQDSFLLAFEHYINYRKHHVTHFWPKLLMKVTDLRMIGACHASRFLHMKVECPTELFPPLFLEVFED
Sequence,binding result [1],Kd [2] [nM]
TCAATAGATGCTTTTCAGATAAGAA (double strand) [TSH GATA-RE],no binding,
TGGGTCACCACAGCATCTGCTCACCAATGCAAAGT (double strand) [TSH NRE],,1180
